The source of these data is paper PMC9616960.

By UniProt entry, the sequences of proteins in these tests, tags left out. Residues count along the entry.
UniProt P18910, residues 29-1057: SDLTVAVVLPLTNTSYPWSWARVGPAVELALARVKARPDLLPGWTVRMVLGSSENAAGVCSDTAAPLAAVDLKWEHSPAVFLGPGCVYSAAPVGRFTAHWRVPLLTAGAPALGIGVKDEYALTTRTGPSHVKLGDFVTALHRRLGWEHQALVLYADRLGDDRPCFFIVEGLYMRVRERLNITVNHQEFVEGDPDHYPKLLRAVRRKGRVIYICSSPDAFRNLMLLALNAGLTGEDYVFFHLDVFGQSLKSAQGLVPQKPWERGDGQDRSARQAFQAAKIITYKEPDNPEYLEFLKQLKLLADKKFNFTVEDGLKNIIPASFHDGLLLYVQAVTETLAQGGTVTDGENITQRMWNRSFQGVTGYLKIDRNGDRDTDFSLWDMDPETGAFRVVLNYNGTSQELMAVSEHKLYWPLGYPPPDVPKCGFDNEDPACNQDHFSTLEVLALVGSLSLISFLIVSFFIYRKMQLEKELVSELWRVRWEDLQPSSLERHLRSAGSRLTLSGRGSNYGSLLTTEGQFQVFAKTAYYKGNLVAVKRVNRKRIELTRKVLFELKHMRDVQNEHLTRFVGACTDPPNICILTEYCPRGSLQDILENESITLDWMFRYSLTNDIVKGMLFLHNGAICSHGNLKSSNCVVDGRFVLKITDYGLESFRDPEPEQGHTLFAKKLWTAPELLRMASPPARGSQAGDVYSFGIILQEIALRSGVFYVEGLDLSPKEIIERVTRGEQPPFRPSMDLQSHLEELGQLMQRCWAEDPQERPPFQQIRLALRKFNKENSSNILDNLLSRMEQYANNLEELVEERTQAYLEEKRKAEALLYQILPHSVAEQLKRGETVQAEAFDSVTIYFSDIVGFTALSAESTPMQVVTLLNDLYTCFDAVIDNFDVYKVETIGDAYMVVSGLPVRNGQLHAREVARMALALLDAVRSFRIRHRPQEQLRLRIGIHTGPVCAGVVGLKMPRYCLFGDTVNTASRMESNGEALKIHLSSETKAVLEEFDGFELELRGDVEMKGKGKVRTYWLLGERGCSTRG
UniProt Q3UQ44: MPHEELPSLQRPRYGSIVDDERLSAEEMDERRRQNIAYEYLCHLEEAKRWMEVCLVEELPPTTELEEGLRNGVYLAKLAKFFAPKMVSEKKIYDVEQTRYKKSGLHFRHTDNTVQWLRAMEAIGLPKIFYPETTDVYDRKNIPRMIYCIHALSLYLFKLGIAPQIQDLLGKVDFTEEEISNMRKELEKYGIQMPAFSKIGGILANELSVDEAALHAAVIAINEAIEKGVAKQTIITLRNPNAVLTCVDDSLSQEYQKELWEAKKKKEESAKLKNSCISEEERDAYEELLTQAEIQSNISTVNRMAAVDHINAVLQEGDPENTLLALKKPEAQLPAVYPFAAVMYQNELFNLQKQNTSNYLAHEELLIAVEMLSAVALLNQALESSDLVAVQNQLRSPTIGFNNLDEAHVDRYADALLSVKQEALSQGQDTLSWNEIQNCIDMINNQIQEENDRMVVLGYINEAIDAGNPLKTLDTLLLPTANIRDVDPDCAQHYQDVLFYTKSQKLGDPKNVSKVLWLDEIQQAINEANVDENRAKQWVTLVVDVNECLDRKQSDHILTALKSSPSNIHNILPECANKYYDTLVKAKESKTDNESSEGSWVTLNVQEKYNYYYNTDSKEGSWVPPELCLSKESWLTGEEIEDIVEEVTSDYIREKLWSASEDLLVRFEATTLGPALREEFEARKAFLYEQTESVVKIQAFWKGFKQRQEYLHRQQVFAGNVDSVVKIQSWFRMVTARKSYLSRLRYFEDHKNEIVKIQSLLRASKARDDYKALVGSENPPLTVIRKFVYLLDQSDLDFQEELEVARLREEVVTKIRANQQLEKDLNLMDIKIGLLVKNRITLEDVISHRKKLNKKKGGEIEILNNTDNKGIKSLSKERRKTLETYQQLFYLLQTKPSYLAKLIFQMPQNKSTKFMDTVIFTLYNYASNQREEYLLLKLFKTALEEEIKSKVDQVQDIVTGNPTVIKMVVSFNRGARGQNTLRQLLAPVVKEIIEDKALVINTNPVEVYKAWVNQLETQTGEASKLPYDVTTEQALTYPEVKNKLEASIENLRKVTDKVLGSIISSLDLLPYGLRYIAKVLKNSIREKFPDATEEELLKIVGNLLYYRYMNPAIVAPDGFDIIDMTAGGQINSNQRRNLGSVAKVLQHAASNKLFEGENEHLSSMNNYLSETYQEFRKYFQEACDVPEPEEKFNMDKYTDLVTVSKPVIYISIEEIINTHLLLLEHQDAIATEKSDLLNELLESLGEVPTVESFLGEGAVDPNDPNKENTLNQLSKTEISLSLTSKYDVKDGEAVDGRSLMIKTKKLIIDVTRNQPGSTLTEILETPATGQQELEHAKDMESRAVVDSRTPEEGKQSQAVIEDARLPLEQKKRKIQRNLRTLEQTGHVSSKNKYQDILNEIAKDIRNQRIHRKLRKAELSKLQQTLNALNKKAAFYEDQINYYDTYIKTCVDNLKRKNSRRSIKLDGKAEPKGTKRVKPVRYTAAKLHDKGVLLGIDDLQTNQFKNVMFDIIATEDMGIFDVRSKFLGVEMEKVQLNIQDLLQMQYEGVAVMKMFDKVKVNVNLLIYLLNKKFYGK
UniProt O88382: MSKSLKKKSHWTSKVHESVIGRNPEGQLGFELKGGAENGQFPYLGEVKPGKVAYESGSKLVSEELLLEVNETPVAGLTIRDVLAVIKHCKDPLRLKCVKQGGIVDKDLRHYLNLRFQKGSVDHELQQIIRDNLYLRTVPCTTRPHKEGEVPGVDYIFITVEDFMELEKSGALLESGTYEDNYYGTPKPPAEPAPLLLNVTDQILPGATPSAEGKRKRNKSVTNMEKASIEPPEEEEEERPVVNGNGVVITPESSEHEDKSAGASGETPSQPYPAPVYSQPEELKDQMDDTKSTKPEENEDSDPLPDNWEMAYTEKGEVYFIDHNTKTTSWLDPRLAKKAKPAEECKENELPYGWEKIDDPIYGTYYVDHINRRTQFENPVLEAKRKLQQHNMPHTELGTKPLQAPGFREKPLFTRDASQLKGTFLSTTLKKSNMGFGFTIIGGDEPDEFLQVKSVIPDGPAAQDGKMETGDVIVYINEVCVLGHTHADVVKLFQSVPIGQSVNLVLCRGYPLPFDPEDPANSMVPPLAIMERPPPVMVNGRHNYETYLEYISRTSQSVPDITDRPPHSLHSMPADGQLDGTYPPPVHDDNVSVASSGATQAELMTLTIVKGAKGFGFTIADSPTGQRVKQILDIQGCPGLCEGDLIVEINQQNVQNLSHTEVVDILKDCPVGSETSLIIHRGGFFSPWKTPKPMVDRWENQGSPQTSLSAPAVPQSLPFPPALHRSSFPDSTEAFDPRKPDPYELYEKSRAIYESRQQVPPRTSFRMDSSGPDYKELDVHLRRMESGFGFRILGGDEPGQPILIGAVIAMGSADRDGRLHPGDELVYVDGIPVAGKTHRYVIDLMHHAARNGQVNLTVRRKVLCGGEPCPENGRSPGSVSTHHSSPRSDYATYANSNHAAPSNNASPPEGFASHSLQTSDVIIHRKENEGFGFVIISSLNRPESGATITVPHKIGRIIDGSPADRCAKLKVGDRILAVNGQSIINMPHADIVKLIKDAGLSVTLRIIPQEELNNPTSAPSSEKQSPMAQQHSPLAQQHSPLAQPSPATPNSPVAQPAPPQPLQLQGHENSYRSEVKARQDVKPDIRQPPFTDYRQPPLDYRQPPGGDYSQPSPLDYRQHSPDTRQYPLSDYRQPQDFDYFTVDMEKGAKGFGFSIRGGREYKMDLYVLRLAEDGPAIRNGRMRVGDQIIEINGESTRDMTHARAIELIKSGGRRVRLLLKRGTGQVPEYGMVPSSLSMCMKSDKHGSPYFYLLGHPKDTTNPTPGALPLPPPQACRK
UniProt Q80W68, residues 48-789: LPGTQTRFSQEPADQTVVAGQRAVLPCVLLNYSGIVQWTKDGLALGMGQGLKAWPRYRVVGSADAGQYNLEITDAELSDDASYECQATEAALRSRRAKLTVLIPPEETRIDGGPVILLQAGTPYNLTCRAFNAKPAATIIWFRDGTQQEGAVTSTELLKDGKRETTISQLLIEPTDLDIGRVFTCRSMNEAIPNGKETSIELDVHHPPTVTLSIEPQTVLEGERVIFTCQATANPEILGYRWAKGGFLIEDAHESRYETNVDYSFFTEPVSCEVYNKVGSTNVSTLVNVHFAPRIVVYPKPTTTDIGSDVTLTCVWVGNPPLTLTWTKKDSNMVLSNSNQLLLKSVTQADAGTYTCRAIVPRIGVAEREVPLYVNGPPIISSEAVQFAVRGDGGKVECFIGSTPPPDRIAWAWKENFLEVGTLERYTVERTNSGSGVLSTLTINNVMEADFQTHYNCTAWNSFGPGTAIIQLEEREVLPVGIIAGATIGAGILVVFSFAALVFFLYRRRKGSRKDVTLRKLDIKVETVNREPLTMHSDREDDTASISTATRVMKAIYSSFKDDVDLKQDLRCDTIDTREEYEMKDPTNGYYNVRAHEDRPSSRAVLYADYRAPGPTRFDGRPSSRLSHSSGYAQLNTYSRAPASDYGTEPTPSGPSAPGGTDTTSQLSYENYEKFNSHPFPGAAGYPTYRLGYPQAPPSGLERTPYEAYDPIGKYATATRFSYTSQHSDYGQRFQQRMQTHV
UniProt Q9QZS7, residues 37-1256: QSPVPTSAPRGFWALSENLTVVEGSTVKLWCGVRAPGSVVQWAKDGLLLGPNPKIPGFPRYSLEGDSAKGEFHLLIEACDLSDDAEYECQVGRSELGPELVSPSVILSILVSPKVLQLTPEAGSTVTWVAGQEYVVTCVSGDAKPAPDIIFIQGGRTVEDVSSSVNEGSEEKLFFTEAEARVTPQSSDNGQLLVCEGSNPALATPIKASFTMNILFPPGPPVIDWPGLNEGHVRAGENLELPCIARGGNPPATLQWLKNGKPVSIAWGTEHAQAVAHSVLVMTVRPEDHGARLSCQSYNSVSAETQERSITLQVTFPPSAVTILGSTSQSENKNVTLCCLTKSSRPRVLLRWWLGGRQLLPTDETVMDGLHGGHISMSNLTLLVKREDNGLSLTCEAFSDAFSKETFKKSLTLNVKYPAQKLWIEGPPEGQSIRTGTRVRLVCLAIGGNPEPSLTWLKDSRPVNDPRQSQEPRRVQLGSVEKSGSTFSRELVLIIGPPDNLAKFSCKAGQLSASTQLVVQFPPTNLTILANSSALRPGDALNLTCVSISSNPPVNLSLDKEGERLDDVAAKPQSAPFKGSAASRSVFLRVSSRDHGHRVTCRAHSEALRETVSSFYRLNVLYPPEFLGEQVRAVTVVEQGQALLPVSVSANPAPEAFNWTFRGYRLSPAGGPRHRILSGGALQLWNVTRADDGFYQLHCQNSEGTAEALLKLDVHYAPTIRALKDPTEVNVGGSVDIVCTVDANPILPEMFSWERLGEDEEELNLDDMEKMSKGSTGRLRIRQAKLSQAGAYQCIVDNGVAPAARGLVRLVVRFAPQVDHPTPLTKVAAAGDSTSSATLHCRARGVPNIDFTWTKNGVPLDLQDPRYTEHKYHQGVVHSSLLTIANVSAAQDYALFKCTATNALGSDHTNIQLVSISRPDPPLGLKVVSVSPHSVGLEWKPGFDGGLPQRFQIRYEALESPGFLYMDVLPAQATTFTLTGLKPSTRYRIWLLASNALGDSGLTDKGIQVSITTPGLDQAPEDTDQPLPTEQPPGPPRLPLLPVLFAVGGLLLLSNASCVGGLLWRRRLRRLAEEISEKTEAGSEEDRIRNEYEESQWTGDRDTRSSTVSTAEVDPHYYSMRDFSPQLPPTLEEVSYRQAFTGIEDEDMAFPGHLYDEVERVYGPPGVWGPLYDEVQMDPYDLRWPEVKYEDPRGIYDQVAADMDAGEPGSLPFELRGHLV
UniProt Q62844: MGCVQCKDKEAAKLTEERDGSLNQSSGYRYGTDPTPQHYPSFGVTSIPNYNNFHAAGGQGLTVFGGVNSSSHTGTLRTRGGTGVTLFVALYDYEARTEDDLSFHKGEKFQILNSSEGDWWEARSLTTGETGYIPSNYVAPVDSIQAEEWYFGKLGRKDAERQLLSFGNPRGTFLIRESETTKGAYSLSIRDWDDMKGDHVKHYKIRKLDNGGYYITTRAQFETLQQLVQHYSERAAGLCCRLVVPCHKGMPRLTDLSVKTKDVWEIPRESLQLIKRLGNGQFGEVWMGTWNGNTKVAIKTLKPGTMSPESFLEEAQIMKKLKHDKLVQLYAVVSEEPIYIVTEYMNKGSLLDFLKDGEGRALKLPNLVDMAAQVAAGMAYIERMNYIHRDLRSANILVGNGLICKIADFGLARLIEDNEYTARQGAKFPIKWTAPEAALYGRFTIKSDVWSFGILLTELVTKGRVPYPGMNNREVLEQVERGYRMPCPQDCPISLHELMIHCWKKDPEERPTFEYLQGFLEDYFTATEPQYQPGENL

No constants are given. Whether binding was seen depends on the method and setting. Binding seen in cells or lysates may run through a third protein. Here binding means that the protein was enriched with, or labelled near, the bait; the list need not be complete.

The target in experiment [1] is T1, Podocin (mouse (endogenous in mouse glomeruli)) (UniProt Q91X05).
T1 sequence: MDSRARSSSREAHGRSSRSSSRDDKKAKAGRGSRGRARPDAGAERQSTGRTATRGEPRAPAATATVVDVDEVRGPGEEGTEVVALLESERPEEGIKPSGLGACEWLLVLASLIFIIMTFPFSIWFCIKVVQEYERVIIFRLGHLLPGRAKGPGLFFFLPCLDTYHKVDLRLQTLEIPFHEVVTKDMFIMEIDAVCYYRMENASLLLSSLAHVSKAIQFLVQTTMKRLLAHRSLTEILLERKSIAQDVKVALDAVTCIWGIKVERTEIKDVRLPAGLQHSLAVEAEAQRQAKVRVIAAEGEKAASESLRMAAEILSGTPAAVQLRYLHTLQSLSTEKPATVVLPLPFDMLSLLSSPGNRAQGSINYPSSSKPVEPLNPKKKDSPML
Description: affinity purification with mass spectrometry; two anti-Podocin ABs immobilised on magnetic beads, two hours with CL-47 or CL-91 solubilisates of glomerular membrane fractions of wildtype mice; control: Podocin knockout mice; eluates by nano-LC-MS/MS; specific: tnR >0.25 with both ABs in either of two solubilisation conditions.

In experiment [2] the target is T2, Neph1 (not stated (endogenous in glomeruli of rat or mouse)) (UniProt Q6X936).
T2 sequence: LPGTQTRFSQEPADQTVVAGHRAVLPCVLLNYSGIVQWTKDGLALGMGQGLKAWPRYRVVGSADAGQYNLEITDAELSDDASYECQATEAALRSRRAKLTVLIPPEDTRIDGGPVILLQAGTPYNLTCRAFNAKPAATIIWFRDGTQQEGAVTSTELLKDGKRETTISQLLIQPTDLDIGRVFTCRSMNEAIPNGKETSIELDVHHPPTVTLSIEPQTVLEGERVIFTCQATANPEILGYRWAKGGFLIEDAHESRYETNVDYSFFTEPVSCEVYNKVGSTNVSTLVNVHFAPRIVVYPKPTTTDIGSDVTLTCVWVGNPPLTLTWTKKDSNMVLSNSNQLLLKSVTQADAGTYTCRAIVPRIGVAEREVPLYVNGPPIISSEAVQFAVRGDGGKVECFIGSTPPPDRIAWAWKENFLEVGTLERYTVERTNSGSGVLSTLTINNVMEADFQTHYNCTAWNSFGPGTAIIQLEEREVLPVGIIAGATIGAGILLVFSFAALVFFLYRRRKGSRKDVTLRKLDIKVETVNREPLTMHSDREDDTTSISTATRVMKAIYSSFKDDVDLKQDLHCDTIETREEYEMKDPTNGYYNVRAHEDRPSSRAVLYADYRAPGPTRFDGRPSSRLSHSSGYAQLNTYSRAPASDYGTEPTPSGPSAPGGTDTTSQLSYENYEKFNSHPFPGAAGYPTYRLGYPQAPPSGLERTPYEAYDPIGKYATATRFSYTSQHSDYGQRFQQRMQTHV
Description: affinity purification with mass spectrometry; three anti-Nephrin/Neph1 ABs immobilised on magnetic beads, two hours with CL-47 or CL-91 solubilisates of glomerular membrane fractions; eluates by nano-LC-MS/MS; specific: tnR >=0.2 against three target-unrelated ABs/IgG, in at least two anti-Nephrin/Neph1 APs.

The target in experiment [3] is T3, Nephrin (not stated (endogenous in glomeruli of rat or mouse)) (UniProt Q9R044).
T3 sequence: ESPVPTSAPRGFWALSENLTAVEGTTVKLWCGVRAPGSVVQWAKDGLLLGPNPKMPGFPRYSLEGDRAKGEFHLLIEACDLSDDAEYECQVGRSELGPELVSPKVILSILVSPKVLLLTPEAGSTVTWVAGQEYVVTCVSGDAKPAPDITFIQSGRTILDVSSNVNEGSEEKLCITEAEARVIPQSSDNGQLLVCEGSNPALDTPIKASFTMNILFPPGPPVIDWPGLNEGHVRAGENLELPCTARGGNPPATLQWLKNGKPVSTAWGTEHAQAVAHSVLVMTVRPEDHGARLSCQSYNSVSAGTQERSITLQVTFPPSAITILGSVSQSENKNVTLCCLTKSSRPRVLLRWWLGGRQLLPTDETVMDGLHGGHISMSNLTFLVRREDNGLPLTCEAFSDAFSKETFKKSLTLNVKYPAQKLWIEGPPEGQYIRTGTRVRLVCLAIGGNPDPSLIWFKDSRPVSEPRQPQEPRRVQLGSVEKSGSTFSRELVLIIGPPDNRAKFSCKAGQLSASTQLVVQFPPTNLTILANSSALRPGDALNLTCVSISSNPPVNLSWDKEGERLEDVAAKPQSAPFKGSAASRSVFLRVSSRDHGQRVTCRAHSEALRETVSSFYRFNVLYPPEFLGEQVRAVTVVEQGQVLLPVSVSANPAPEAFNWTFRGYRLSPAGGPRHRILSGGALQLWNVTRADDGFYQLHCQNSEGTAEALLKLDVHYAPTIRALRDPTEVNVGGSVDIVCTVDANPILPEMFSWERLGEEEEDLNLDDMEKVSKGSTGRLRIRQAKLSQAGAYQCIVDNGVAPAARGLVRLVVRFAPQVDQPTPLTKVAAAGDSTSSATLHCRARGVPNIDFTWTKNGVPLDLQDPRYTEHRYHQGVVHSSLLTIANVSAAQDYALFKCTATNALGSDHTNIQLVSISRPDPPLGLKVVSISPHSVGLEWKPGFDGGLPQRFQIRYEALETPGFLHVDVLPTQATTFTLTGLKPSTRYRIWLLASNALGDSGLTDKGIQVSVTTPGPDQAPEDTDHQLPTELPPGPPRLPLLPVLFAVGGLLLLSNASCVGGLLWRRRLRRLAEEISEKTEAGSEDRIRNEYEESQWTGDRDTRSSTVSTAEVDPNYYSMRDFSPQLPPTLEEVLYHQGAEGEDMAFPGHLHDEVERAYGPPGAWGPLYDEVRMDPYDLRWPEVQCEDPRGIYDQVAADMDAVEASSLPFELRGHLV
Described as above.

Consider “ABC sub-family A member 9 (from UniProt Q8K449 1-1623)”, for which, in experiment [1], the binding result was “binds”. Still for that read-out and setting: for ANPRA (from UniProt P18293 29-1057) the value was “binds”.

In the case of ANPRA (from UniProt P18910 29-1057), the binding result in experiment [2] and in experiment [3] was “binds” in each case. Turning to Amyloid precursor protein, the binding entry in experiment [2] and in experiment [3] was “binds” throughout. For “Atypical chemokine receptor 3 (from UniProt O89039 1-362)”, the binding result in experiment [2] and in experiment [3] was “binds” throughout. As to Dendrin (from UniProt Q80TS7 1-710), the binding entry in experiment [1] is given as “binds”.

Regarding IQGAP2 (from UniProt Q3UQ44 1-1575), in experiment [1], the binding result is reported as “binds”. As for “Integrin alpha-3 (mouse (endogenous in mouse glomeruli))”, the binding entry in experiment [1] is “binds”. For the substance Integrin alpha-V, the binding entry in experiment [2] and in experiment [3] was “binds” throughout. Regarding MAGI-2 (from UniProt O88382 1-1277), the binding entry in experiment [2] and in experiment [3] was “binds” throughout. With MAGI-2 (from UniProt Q9WVQ1 1-1275), in experiment [1], the binding entry is “binds”. As for Neph1 (from UniProt Q80W68 48-789), in experiment [1], the binding result is listed as “binds”. For Nephrin (from UniProt Q9QZS7 37-1256), in experiment [1], the binding entry is reported as “binds”. In the case of Nicastrin (from UniProt Q8CGU6 35-708), the binding result in experiment [2] and in experiment [3] was “binds” each time. As for PMCA1 (from UniProt P11505 1-1220), the binding result in experiment [2] and in experiment [3] was “binds” throughout. In the case of “tyrosine kinase Fyn (from UniProt Q62844 1-537)”, the binding result in experiment [2] and in experiment [3] was “binds” throughout.
